# Measured values taken from PubChem BioAssay AID296 (DTP/NCI, 2004).
# The list does not hold the whole screen: it is rich in T/C values a quarter to a half above the control, in often repeated tests (any T/C) and in doses without a T/C. Other doses and runs of a compound stand elsewhere. T/C gives the treated animals as a percentage of the vehicle group. Schedule codes are those of the source, taken here to give the interval after Q, in days (D) or hours (H), and the number of doses after X. Some T/C values are negative: the treated tumours shrank. Some doses were run more than once; their values stand side by side, smallest first. Some T/C values carry the count of animals alive at the toxicity check (mostly the fifth day); without a count, all were alive then. Some entries give survivors of the animals treated and no T/C: the source files T/C as zero there, which appears to mark a toxic dose or a test without result, not a measured value. Survivors were counted at the toxicity check, usually on the fifth day, unless a day is given; later deaths do not show. Some structures stand for samples that the source files as different forms (salt, stereo form or complex); doses refer to the form tested.
# Test system: MX-1 breast xenograft, nude mice, tumor weight T/C
# Test: NCI In Vivo Anticancer Drug Screen. Data for tumor model Human Mammary Carcinoma MX-1 Xenograft (intrarenal inoculation) in NU/NU Swiss (nude) mice
# Details: T/C endpoint: mean tumor weight change, higher T/C = larger tumour; for T/C: evaluated on day 11
# In short: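 Antitumour effect measured in vivo against vehicle controls, expressed as T/C.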
# [1] = dose: 800.0 mg/kg/injection, schedule: Q04DX003 (sc), vehicle: saline with Tween-80
# [2] = dose: 0.75 mg/kg/injection, schedule: Q04DX003 (sc), vehicle: Klucel (hydroxypropylcellulose) (HPC)
# [3] = dose: 3.0 mg/kg/injection, schedule: Q04DX003 (sc), vehicle: Klucel (hydroxypropylcellulose) (HPC)
# [4] = dose: 150.0 mg/kg/injection, schedule: Q04DX003 (sc), vehicle: Klucel (hydroxypropylcellulose) (HPC)
# [5] = dose: 300.0 mg/kg/injection, schedule: Q04DX003 (sc), vehicle: Klucel (hydroxypropylcellulose) (HPC)
# [6] = dose: 300.0 mg/kg/injection, schedule: Q04DX003 (sc), vehicle: saline with Tween-80
# [7] = dose: 600.0 mg/kg/injection, schedule: Q04DX003 (sc), vehicle: saline with Tween-80
# [8] = dose: 200.0 mg/kg/injection, schedule: Q01DX010 (sc), vehicle: saline with Tween-80
# [9] = dose: 400.0 mg/kg/injection, schedule: Q01DX010 (sc), vehicle: saline
# [10] = dose: 800.0 mg/kg/injection, schedule: Q01DX010 (sc), vehicle: saline
smiles,measurement,setting,value
S=P(N1CC1)(N1CC1)N1CC1,survivor count,"dose: 4.0 mg/kg/injection, schedule: Q01DX010 (sc), vehicle: saline",0 of 3 on day 11
same,survivor count,"dose: 8.0 mg/kg/injection, schedule: Q01DX010 (sc), vehicle: saline",0 of 3 on day 11 and 0 of 6 on day 11
CNc1nc2c(N)ncnc2n1C1OC(CO)C(O)C1O (stereo not drawn),survivor count,"dose: 100.0 mg/kg/injection, schedule: Q04DX003 (sc), vehicle: saline",2 of 6 on day 11
ClCCCN1CCN(CCCCl)CC1,survivor count,"dose: 300.0 mg/kg/injection, schedule: Q04DX003 (sc), vehicle: saline + alcohol",2 of 6 on day 11
same,survivor count,"dose: 600.0 mg/kg/injection, schedule: Q04DX003 (sc), vehicle: saline + alcohol",0 of 6 on day 11
CNc1nc(N(C)C)nc(N(C)C)n1,survivor count,"dose: 240.0 mg/kg/injection, schedule: Q01DX010 (sc), vehicle: water",0 of 3 on day 11
CCCCCCCCCCS(=O)CC(CO)NC(=O)/C=C/c1c(C)[nH]c(=O)[nH]c1=O (stereo not drawn),survivor count,"dose: 75.0 mg/kg/injection, schedule: Q04DX003 (sc), vehicle: distilled water + Tween-80",0 of 6 on day 11
C1OCN2CSCC12 (stereo not drawn),survivor count,[1],2 of 6 on day 11
C=C(OP(=O)(OC)OC)Sc1ccccc1C,survivor count,[2],3 of 6 on day 11
same,survivor count,"dose: 0.8 mg/kg/injection, schedule: Q04DX003 (sc), vehicle: Klucel (hydroxypropylcellulose) (HPC)",2 of 6 on day 11
same,survivor count,"dose: 1.5 mg/kg/injection, schedule: Q04DX003 (sc), vehicle: Klucel (hydroxypropylcellulose) (HPC)",0 of 6 on day 11
same,survivor count,"dose: 1.6 mg/kg/injection, schedule: Q04DX003 (sc), vehicle: Klucel (hydroxypropylcellulose) (HPC)",0 of 6 on day 11
same,survivor count,[3],0 of 6 on day 11
same,survivor count,"dose: 6.0 mg/kg/injection, schedule: Q04DX003 (sc), vehicle: Klucel (hydroxypropylcellulose) (HPC)",0 of 6 on day 11
same,survivor count,[4],0 of 6 on day 11
same,survivor count,[5],0 of 6 on day 11
same,survivor count,"dose: 600.0 mg/kg/injection, schedule: Q04DX003 (sc), vehicle: Klucel (hydroxypropylcellulose) (HPC)",0 of 6 on day 11
same,survivor count,"dose: 1200.0 mg/kg/injection, schedule: Q04DX003 (sc), vehicle: Klucel (hydroxypropylcellulose) (HPC)",0 of 6 on day 11
COc1cc2c[n+](C)c3c4cc5c(cc4ccc3c2cc1OC)OCO5,survivor count,[6],0 of 6 on day 11
same,survivor count,[7],0 of 6 on day 11
same,survivor count,"dose: 1200.0 mg/kg/injection, schedule: Q04DX003 (sc), vehicle: saline with Tween-80",0 of 6 on day 11
Oc1ccc(SCc2ccc(NCc3ccccc3)cc2)cc1,T/C,[8],144 % of control
O=C1c2c(O)cccc2-c2nn(CCNCCO)c3ccc(NCCNCCO)c1c23,survivor count,"dose: 22.0 mg/kg/injection, schedule: Q04DX003 (ip), vehicle: water",2 of 6 on day 11
same,survivor count,"dose: 44.0 mg/kg/injection, schedule: Q04DX003 (ip), vehicle: water",0 of 6 on day 11
COc1cc(NCCCCCCCNC(C)C)c2nccc(C)c2c1,survivor count,"dose: 300.0 mg/kg/injection, schedule: Q04DX003 (sc), vehicle: saline",1 of 6 on day 11
C/C(=N\NC(=S)N1CC2CCC(CC2)C1)c1cccc(C)n1,T/C,"dose: 12.5 mg/kg/injection, schedule: Q04DX003 (ip), vehicle: saline with Tween-80",126 % of control
same,T/C,"dose: 25.0 mg/kg/injection, schedule: Q04DX003 (ip), vehicle: saline with Tween-80",135 % of control
same,survivor count,"dose: 100.0 mg/kg/injection, schedule: Q04DX003 (ip), vehicle: saline with Tween-80",3 of 6 on day 11
Cc1c2c(ccc3ccccc32)c[n+]2ccccc12,survivor count,"dose: 25.0 mg/kg/injection, schedule: Q01DX010 (sc), vehicle: saline",0 of 3 on day 11
Clc1ccc2nnnn2n1,survivor count,"dose: 400.0 mg/kg/injection, schedule: Q04DX003 (sc), vehicle: saline with Tween-80",3 of 6 on day 11
same,survivor count,[1],2 of 6 on day 11
BrC[P+](CBr)(CBr)CBr,survivor count,[1],2 of 6 on day 11
N#C[Se-].c1ccc([Te+](c2ccccc2)c2ccccc2)cc1,T/C,"dose: 15.0 mg/kg/injection, schedule: Q04DX003 (sc), vehicle: Klucel (hydroxypropylcellulose) (HPC)",127 % of control
same,survivor count,"dose: 37.5 mg/kg/injection, schedule: Q04DX003 (sc), vehicle: Klucel (hydroxypropylcellulose) (HPC)",1 of 6 on day 11
same,survivor count,"dose: 75.0 mg/kg/injection, schedule: Q04DX003 (sc), vehicle: Klucel (hydroxypropylcellulose) (HPC)",0 of 6 on day 11
same,survivor count,[4],0 of 6 on day 11
same,survivor count,[5],0 of 6 on day 11
C[n+]1c2cc(N)ccc2cc2ccc(N)cc21,survivor count,"dose: 12.5 mg/kg/injection, schedule: Q01DX010 (sc), vehicle: saline",0 of 3 on day 11
CN=C(N)N/N=C(\C)c1ccc2oc3ccc(/C(C)=N/NC(N)=NC)cc3c2c1,survivor count,[7],3 of 6 on day 11
CNC=O,T/C,"dose: 100.0 mg/kg/injection, schedule: Q01DX010 (sc), vehicle: saline","-38, -13, 1, 4 % of control"
same,T/C,"dose: 200.0 mg/kg/injection, schedule: Q01DX010 (sc), vehicle: saline","-72, -48, -11, -6 % of control"
same,T/C,[9],-74 and -53 % of control [2 of 3 alive on day 11]
same,survivor count,[9],1 of 6 on day 11
same,T/C,[10],-87 and -18 % of control [5 of 6 alive on day 11]
same,survivor count,[10],1 of 6 on day 11 and 1 of 3 on day 11
Nc1ccc(Cl)cc1N,survivor count,"dose: 3600.0 mg/kg/injection, schedule: Q04DX003 (sc), vehicle: saline with Tween-80",0 of 6 on day 11
N=c1ccn2c(n1)OC1C(O)C(CO)OC12 (stereo not drawn),survivor count,"dose: 300.0 mg/kg/injection, schedule: Q04DX003 (sc), vehicle: suspension in saline",3 of 5 on day 11
same,survivor count,"dose: 3200.0 mg/kg/injection, schedule: Q04DX003 (sc), vehicle: saline",1 of 6 on day 11
C=C1C(=O)C2=CC1CCC(=O)C1(C)CCC(OC(C)=O)C(C)(C)C1CC2O (stereo not drawn),survivor count,"dose: 240.0 mg/kg/injection, schedule: Q04DX003 (sc), vehicle: Klucel (hydroxypropylcellulose) (HPC)",0 of 6 on day 11
C[C@H](N)C(=O)N[C@@H]1[C@H]2C(=C(O)C[C@@H](O)[C@@H]2O)C(=O)O[C@]1(C)C(Cl)Cl,T/C,[2],130 % of control
same,T/C,[3],140 % of control [5 of 6 alive on day 11]
C/C(=N\NC(N)=O)c1cccc(/C(C)=N/NC(N)=O)n1,T/C,[6],149 % of control
same,survivor count,"dose: 2400.0 mg/kg/injection, schedule: Q04DX003 (sc), vehicle: saline with Tween-80",3 of 6 on day 11
C=C1C(=O)OCC1C(=O)O (stereo not drawn),survivor count,"dose: 400.0 mg/kg/injection, schedule: Q04DX003 (sc), vehicle: suspension in saline",0 of 6 on day 11
O=Cc1ccc(C(Cl)(Cl)Cl)cc1,T/C,[8],128 % of control [2 of 2 alive on day 11]
CC1CN1C(=O)NCCCCCCNC(=O)N1CC1C (stereo not drawn),survivor count,"dose: 40.0 mg/kg/injection, schedule: Q04DX003 (sc), vehicle: Klucel (hydroxypropylcellulose) (HPC)",1 of 6 on day 11
same,survivor count,"dose: 80.0 mg/kg/injection, schedule: Q04DX003 (sc), vehicle: Klucel (hydroxypropylcellulose) (HPC)",0 of 6 on day 11
CS(=O)(=O)OCCCNCCCOS(C)(=O)=O,survivor count,"dose: 150.0 mg/kg/injection, schedule: Q04DX003 (sc), vehicle: saline",0 of 3 on day 11
